# Experimental data taken from the supplement of paper PMC10849652.
# Amino acid sequences for entries named in this document (tags omitted). A change or cut given only in a name is not applied to a line headed by its entry.
# UniProt Q6XQN6: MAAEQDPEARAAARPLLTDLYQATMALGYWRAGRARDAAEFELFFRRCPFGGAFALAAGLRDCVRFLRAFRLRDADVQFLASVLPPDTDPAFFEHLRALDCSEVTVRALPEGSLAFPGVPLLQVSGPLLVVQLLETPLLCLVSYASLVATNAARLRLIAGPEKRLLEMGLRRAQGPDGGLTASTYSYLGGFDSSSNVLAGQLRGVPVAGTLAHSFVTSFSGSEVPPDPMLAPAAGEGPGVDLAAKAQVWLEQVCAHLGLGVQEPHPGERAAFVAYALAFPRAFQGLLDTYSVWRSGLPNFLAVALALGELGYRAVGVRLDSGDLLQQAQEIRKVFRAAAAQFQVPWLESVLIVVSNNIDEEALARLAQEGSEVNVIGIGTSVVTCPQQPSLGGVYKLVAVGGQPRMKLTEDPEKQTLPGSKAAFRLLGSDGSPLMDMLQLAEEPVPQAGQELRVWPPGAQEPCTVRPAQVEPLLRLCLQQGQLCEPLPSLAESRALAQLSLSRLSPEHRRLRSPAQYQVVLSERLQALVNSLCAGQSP
# UniProt P61599, whole entry, looked up: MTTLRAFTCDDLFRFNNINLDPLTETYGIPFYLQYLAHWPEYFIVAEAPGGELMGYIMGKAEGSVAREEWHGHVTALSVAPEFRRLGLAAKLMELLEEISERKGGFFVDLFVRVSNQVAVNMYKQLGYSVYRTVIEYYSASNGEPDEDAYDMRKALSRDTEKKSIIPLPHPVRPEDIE
# UniProt P46934: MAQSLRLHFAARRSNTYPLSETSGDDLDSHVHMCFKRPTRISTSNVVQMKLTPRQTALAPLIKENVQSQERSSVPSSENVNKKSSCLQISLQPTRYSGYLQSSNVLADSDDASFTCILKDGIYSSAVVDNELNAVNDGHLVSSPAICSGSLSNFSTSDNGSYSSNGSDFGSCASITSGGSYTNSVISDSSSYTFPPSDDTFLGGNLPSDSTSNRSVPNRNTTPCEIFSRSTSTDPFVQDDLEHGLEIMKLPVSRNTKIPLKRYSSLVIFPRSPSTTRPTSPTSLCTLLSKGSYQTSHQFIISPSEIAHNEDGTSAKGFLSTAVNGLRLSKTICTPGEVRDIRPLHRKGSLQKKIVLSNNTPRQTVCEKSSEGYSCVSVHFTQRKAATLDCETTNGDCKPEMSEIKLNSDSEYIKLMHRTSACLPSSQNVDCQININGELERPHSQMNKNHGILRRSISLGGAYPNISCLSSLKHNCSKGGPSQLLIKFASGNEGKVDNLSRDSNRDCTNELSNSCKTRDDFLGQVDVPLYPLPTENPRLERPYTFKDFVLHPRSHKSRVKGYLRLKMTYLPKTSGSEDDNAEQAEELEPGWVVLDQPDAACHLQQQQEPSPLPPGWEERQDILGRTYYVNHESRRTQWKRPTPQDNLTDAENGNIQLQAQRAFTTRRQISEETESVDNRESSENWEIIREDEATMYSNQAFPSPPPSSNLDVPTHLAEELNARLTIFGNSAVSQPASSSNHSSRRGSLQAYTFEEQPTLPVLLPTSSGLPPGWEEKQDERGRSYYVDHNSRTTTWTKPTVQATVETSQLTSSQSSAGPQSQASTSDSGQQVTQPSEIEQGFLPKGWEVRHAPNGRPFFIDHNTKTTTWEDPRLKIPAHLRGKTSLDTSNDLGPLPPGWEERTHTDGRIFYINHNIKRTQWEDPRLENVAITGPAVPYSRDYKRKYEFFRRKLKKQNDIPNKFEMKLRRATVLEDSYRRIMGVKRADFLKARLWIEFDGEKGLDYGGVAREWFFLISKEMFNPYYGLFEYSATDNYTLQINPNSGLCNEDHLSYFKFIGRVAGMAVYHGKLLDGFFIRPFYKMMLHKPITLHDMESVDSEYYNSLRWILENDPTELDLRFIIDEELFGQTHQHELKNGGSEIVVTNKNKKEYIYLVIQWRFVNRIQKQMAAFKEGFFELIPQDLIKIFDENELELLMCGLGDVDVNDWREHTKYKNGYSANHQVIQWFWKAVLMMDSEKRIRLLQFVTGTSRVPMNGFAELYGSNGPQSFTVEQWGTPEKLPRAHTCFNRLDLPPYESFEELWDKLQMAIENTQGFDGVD
# UniProt O43678, whole entry, looked up: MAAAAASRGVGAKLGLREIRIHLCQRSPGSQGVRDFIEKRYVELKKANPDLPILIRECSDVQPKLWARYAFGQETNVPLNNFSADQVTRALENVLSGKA
# UniProt P56181: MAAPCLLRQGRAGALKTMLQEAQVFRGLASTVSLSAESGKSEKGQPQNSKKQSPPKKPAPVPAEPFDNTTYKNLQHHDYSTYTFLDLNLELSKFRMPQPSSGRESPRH
# UniProt Q8NI08: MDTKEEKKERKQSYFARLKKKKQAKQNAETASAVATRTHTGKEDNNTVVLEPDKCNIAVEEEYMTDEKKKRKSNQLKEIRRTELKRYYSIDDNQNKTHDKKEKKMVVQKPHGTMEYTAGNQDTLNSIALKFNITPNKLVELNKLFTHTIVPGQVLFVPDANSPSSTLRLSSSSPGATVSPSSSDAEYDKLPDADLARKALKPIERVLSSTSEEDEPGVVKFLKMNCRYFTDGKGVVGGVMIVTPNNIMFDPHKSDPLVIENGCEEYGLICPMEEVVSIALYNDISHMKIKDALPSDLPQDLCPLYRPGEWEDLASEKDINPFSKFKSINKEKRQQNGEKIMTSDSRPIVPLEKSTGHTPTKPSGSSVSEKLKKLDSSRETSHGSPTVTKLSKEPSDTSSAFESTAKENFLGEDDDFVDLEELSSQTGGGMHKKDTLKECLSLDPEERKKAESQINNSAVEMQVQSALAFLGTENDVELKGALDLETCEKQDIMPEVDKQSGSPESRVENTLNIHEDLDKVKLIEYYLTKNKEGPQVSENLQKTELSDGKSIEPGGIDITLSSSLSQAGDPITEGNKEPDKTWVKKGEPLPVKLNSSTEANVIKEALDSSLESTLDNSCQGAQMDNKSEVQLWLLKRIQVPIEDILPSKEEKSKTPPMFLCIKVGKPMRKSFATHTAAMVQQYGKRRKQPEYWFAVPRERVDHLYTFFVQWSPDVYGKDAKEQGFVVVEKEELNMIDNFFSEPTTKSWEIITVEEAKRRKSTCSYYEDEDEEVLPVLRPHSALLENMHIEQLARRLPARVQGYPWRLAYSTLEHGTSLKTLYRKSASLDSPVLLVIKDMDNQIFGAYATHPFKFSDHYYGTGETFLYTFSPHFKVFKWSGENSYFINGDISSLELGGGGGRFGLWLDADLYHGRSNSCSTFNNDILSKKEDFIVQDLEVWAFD
# UniProt Q15843, whole entry, looked up: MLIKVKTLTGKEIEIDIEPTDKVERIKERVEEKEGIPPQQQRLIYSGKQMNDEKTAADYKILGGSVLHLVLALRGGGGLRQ
# UniProt P56556, whole entry, looked up: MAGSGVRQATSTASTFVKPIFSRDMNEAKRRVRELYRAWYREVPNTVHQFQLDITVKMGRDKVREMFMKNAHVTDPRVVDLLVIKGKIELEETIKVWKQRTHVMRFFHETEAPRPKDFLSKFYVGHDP
# UniProt Q8NEY1: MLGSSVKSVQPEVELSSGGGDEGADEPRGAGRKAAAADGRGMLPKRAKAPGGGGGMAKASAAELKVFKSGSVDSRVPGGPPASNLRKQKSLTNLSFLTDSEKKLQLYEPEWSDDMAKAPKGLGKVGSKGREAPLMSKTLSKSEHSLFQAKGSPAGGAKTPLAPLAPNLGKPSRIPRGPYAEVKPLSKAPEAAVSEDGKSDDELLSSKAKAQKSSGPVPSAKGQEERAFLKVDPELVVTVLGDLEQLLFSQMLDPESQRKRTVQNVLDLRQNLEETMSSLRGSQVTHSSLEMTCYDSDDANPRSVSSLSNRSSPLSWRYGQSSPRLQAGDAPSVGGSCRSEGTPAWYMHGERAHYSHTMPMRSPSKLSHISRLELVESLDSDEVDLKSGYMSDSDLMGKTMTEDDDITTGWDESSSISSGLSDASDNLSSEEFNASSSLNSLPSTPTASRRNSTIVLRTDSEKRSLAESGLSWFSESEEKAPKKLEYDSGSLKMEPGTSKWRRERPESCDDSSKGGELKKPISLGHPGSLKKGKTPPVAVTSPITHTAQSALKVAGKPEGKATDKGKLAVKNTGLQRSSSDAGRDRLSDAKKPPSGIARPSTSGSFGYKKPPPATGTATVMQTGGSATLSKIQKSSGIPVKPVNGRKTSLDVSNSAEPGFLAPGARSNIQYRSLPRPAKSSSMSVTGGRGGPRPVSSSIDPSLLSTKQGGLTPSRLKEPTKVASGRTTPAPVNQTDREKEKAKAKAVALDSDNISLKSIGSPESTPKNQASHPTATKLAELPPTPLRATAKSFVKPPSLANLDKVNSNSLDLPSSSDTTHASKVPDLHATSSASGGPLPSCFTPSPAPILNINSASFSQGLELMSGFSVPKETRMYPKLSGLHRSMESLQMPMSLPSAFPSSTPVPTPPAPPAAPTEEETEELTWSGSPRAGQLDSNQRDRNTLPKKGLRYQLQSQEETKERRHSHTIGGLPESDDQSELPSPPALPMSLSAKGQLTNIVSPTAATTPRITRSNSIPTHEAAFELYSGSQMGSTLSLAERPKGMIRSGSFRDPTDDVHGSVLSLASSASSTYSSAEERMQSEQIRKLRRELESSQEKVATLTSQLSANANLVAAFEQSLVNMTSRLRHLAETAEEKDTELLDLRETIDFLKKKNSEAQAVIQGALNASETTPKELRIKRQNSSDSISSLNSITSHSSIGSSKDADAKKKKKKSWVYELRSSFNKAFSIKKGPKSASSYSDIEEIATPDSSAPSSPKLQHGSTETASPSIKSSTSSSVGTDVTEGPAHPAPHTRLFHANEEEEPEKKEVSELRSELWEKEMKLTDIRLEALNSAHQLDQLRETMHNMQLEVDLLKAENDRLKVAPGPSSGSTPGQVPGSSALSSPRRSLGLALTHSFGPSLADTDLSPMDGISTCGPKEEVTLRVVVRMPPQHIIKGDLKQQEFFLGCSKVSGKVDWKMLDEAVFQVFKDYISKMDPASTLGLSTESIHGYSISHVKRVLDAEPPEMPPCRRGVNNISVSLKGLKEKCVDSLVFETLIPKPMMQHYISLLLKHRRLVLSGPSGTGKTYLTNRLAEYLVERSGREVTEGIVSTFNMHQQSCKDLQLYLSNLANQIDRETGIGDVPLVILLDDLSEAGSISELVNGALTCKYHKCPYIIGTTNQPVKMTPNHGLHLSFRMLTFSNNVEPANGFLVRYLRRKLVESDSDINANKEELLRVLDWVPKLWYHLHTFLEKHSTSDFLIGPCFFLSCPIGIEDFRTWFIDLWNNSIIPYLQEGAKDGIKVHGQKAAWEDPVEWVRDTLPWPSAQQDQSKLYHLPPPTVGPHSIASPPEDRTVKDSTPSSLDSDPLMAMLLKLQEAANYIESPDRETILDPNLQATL
# UniProt Q9Y6M9, whole entry, looked up: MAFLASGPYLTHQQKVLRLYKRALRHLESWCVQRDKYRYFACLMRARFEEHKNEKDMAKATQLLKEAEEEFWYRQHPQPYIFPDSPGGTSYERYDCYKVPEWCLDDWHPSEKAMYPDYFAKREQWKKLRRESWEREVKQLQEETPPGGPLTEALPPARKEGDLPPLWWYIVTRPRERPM
# UniProt Q9UK23: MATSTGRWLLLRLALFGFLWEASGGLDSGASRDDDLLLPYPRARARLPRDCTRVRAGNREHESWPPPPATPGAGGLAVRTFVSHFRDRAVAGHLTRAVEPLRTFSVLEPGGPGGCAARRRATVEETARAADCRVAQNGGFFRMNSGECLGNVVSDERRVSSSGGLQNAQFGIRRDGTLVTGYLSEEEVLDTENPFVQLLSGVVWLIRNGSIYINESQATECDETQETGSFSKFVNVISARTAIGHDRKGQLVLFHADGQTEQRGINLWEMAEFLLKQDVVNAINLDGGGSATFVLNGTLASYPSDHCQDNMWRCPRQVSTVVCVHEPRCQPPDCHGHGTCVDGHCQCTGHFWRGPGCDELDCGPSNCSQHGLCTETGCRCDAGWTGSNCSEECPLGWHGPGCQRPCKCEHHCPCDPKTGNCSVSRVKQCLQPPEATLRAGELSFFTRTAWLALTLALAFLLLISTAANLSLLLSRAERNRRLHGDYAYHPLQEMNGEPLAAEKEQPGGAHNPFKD
# UniProt Q6NZ67, whole entry, looked up: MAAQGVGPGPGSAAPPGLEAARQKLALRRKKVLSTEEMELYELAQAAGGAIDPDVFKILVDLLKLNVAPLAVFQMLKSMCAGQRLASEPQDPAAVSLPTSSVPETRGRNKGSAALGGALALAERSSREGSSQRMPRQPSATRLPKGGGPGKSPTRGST
# UniProt P49821, whole entry, looked up: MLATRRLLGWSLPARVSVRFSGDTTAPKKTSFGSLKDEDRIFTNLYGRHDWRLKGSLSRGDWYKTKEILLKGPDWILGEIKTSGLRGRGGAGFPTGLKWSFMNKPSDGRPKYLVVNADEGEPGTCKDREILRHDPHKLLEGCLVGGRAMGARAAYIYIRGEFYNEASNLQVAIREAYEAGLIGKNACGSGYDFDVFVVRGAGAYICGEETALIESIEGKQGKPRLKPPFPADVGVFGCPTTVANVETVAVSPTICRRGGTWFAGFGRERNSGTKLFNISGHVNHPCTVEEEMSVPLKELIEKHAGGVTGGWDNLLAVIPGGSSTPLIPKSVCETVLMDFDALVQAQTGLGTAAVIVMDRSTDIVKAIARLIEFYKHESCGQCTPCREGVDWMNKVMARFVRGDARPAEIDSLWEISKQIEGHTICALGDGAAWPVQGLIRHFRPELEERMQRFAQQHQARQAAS
# This is one part of the list.
# Experiments:
# Experiment in all cases: log2 fold change, soluble protein after heating vs DMSO (PISA); higher = thermal stabilisation; K562 cells, 10 uM, 30 min; active = over 0.2 and 3.5 SD of the protein, either way, in both replicates (recomputed)
# [1] = compound: CS(=O)(=O)c1ccc(-c2cnc(N)c(C(=O)Nc3ccccc3)n2)cc1
# How it was run: (§1)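 Values are thermal stability changes relative to control samples and are taken from duplicates. They are stated as log2 fold changes. Before quantification by TMTpro 16plex LC-MS/MS with equalised channel sums, K562 cells at 2×10^6 cells/mL were treated with 10 μM compound for 30 min, heated in aliquots for 3 min across 48°C-58°C, pooled, extracted in PBS with 0.5% NP-40 at 4°C, and centrifuged at 21,000xg for 90 min to give the soluble supernatant.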
# crizotinib = compound: C[C@@H](Oc1cc(-c2cnn(C3CCNCC3)c2)cnc1N)c1c(Cl)ccc(F)c1Cl [crizotinib]
# How it was run: as §1
# [2] = compound: C[C@@H]1COCCN1C2=NC(=NC(=C2)C3(CC3)S(=O)(=O)C)C4=C5C=CNC5=CC=C4
# How it was run: as §1
# [3] = compound: C[C@H](C1=CC=C(C=C1)C(=O)NC2=C3C=CNC3=NC=C2)N
# How it was run: as §1
# duvelisib = compound: C[C@H](Nc1ncnc2nc[nH]c12)c1cc2cccc(Cl)c2c(=O)n1-c1ccccc1 [duvelisib]
# How it was run: as §1
# gandotinib = compound: Cc1cc(Nc2cc(CN3CCOCC3)c3nc(C)c(Cc4ccc(Cl)cc4F)n3n2)n[nH]1 [gandotinib]
# How it was run: as §1
# tozasertib = compound: Cc1cc(Nc2cc(N3CCN(C)CC3)nc(Sc3ccc(NC(=O)C4CC4)cc3)n2)n[nH]1 [tozasertib]
# How it was run: as §1
# [4] = compound: Cc1cc(SCc2sc(-c3ccc(C(F)(F)F)cc3)nc2C)ccc1OCC(=O)O
# How it was run: as §1
# doramapimod = compound: Cc1ccc(-n2nc(C(C)(C)C)cc2NC(=O)Nc2ccc(OCCN3CCOCC3)c3ccccc23)cc1 [doramapimod]
# How it was run: as §1
# ispinesib = compound: Cc1ccc(C(=O)N(CCCN)[C@@H](c2nc3cc(Cl)ccc3c(=O)n2Cc2ccccc2)C(C)C)cc1 [ispinesib]
# How it was run: as §1
Target,log2 fold change [1],log2 fold change (crizotinib),log2 fold change [2],log2 fold change [3],log2 fold change (duvelisib),log2 fold change (gandotinib),log2 fold change (tozasertib),log2 fold change [4],log2 fold change (doramapimod),log2 fold change (ispinesib)
NAPRT (UniProt Q6XQN6),inactive: -0.017,inactive: 0.031,inactive: 0.026,inactive: -0.073,inactive: 0.028,inactive: 0.004,inactive: -0.024,inactive: -0.032,inactive: -0.03,inactive: 0.055
NCEH1 isoform 2 (UniProt Q6PIU2),inactive: 0.007,inactive: 0.002,inactive: 0.047,inactive: -0.061,inactive: 0.029,inactive: -0.036,inactive: -0.01,inactive: -0.037,inactive: 0.059,inactive: 0.037
NAA16 (UniProt Q6N069),inactive: -0.005,inactive: -0.047,inactive: 0.052,inactive: 0.017,inactive: 0.019,inactive: 0.012,inactive: -0.021,inactive: 0.021,inactive: 0.045,inactive: 0.005
NAXE (UniProt Q8NCW5),inactive: 0.012,inactive: 0.094,inactive: 0.136,inactive: -0.099,inactive: 0.036,inactive: 0.113,inactive: 0.021,inactive: -0.029,inactive: -0.017,inactive: 0.062
NDUFS1 isoform 2 (UniProt P28331),inactive: 0.024,inactive: -0.071,inactive: 0.068,inactive: -0.023,inactive: 0.013,inactive: -0.08,inactive: -0.023,inactive: 0.06,inactive: -0.018,inactive: -0.106
NAA20 (UniProt P61599),inactive: 0.052,inactive: -0.05,inactive: 0.187,inactive: -0.002,inactive: 0.045,inactive: -0.077,inactive: 0.018,inactive: 0.024,inactive: 0.047,inactive: 0.076
NAA35 (UniProt Q5VZE5),inactive: 0.042,inactive: -0.069,inactive: -0.013,inactive: -0.026,inactive: 0.027,inactive: -0.023,inactive: -0.061,inactive: 0.022,inactive: 0.025,inactive: 0.007
NEDD4 isoform 4 (UniProt P46934),inactive: -0.05,inactive: -0.081,inactive: 0.095,inactive: -0.039,,inactive: -0.061,,inactive: -0.009,inactive: -0.042,inactive: -0.022
NCDN isoform 3 (UniProt Q9UBB6),inactive: 0.077,inactive: -0.171,inactive: 0.063,inactive: 0.043,inactive: 0.061,inactive: -0.026,inactive: 0.024,inactive: 0.05,inactive: -0.031,inactive: -0.106
NDUFA2 (UniProt O43678),inactive: 0.018,inactive: 0.078,inactive: 0.2,inactive: -0.035,inactive: 0.065,inactive: 0.036,inactive: 0.01,inactive: 0.02,inactive: -0.006,inactive: -0.126
NDUFV3 (UniProt P56181),inactive: -0.008,inactive: 0.017,inactive: 0.045,inactive: 0.061,inactive: -0.01,,inactive: 0.091,inactive: -0.064,inactive: -0.011,inactive: 0.006
N6AMT1 (UniProt Q9Y5N5),inactive: 0.006,inactive: 0.034,inactive: 0.083,inactive: -0.132,inactive: 0.085,inactive: -0.013,inactive: 0.038,inactive: -0.032,inactive: 0.082,inactive: 0.012
NCOA7 (UniProt Q8NI08),inactive: -0.003,inactive: -0.17,inactive: 0.012,inactive: -0.034,,active: -0.238,,inactive: 0.031,inactive: 0.082,inactive: -0.037
NCAPD3 (UniProt P42695),inactive: -0.009,inactive: -0.005,inactive: -0.004,inactive: -0.018,inactive: -0.007,inactive: 0.005,inactive: 0.101,inactive: 0.091,inactive: 0.034,inactive: -0.034
NEDD8 (UniProt Q15843),inactive: 0.008,inactive: 0.118,inactive: 0.161,inactive: 0.032,inactive: -0.011,inactive: 0.074,inactive: 0.043,inactive: 0.016,inactive: 0.022,inactive: 0.094
NDUFA6 (UniProt P56556),inactive: 0.012,inactive: -0.044,inactive: 0.172,inactive: -0.078,,inactive: -0.22,,inactive: 0.098,inactive: -0.004,inactive: 0
NAV1 (UniProt Q8NEY1),inactive: 0.104,inactive: -0.269,inactive: -0.066,inactive: 0.222,inactive: 0.058,inactive: 0.129,inactive: -0.183,inactive: -0.004,inactive: 0.097,inactive: -0.352
NDUFAB1 (UniProt O14561),inactive: -0.025,inactive: 0.124,inactive: 0.238,inactive: -0.211,,inactive: 0.178,inactive: 0.08,,inactive: 0.005,inactive: 0.256
NEBL isoform 2 (UniProt O76041),inactive: 0.061,inactive: 0.016,inactive: -0.081,inactive: 0.002,inactive: 0.035,inactive: 0.026,inactive: -0.024,inactive: -0.041,inactive: 0.042,inactive: -0.016
NANS (UniProt Q9NR45),inactive: -0.074,inactive: 0.026,inactive: 0.052,inactive: -0.098,,inactive: -0.03,,inactive: 0.001,inactive: -0.006,inactive: 0.074
NACA4P (UniProt Q9BZK3),inactive: -0.046,inactive: -0.271,inactive: -0.251,inactive: 0.1,inactive: -0.113,,inactive: -0.227,inactive: 0.073,inactive: 0.005,inactive: -0.033
NAMPT (UniProt C9JF35),inactive: 0.02,inactive: -0.01,inactive: 0.056,inactive: 0.198,inactive: 0.012,,inactive: -0.07,inactive: -0.129,inactive: 0.139,inactive: -0.025
NAA10 (UniProt P41227),inactive: 0.013,inactive: 0.001,inactive: 0.071,inactive: -0.064,inactive: -0.008,inactive: -0.044,inactive: 0,inactive: 0.038,inactive: -0.019,inactive: 0.04
NDUFB9 (UniProt Q9Y6M9),inactive: -0.009,inactive: 0.04,inactive: 0.074,inactive: -0.037,inactive: 0.029,inactive: 0.093,inactive: -0.001,inactive: 0.036,inactive: -0.031,inactive: 0.097
NCOA3 (UniProt Q9Y6Q9),inactive: -0.008,inactive: -0.114,inactive: -0.3,inactive: -0.102,,inactive: -0.13,inactive: 0.156,,inactive: -0.08,inactive: 0.024
NAGPA (UniProt Q9UK23),inactive: 0.017,inactive: 0.178,inactive: -0.078,inactive: -0.014,,inactive: 0.024,,inactive: -0.079,inactive: 0.072,
MZT2B (UniProt Q6NZ67),inactive: -0.015,inactive: 0.099,inactive: -0.154,inactive: -0.118,inactive: -0.116,inactive: 0.028,inactive: -0.052,inactive: 0.031,inactive: 0.141,inactive: 0.044
NDUFV1 (UniProt P49821),inactive: 0.036,inactive: -0.055,inactive: 0.006,inactive: -0.031,inactive: 0.066,inactive: -0.018,inactive: -0.051,inactive: 0.01,inactive: 0.008,inactive: -0.044

# A few values from the results shown:
# NCAPD3 (UniProt P42695) | log2 fold change [4]: inactive: 0.091
# NCOA7 (UniProt Q8NI08) | log2 fold change [4]: inactive: 0.031

# Given with bars between the fields: part of the list above.
Target | log2 fold change [1] | log2 fold change (crizotinib) | log2 fold change [2] | log2 fold change [3] | log2 fold change (duvelisib) | log2 fold change (gandotinib) | log2 fold change (tozasertib) | log2 fold change [4] | log2 fold change (doramapimod) | log2 fold change (ispinesib)
NCDN isoform 3 (UniProt Q9UBB6) | inactive: 0.077 | inactive: -0.171 | inactive: 0.063 | inactive: 0.043 | inactive: 0.061 | inactive: -0.026 | inactive: 0.024 | inactive: 0.05 | inactive: -0.031 | inactive: -0.106
NDUFA2 (UniProt O43678) | inactive: 0.018 | inactive: 0.078 | inactive: 0.2 | inactive: -0.035 | inactive: 0.065 | inactive: 0.036 | inactive: 0.01 | inactive: 0.02 | inactive: -0.006 | inactive: -0.126
